# Measured values: the supplement of paper PMC4604168 (melanoma cell lines)
# The list shows a part of the results. Repeats are few or missing, and single values can be far off.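 Imaging used 1,536-well plates; nuclei positive for cleaved PARP by antibody were divided by total DNA-stained nuclei to yield the apoptosis fraction. Doses for screening kept most cells viable, and cell lines differ markedly in resting and induced cleaved-PARP levels.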
# Test system: CBRC014 (line from a melanoma biopsy)
# Assay: cleaved PARP positive nuclei fraction relative to DMSO control; melanoma cells; higher = more apoptosis
# Conditions: library dose: low library concentration; 72 h
row,SMILES,cleaved PARP positive nuclei fraction
1,"Cc1cc(Nc2cc(N3CCN(C)CC3)nc(/C=C/c3ccccc3)n2)n[nH]1 + O=c1cc(-c2cccc3c2Sc2ccccc2S3)oc(N2CCOCC2)c1 [KU55933] (first compound 0.04 µM, partner dose 1 µM)",71.3%
2,"Cn1c(=O)n(-c2ccc(C(C)(C)C#N)cc2)c2c3cc(-c4cnc5ccccc5c4)ccc3ncc21 + COc1cc2ncnc(Nc3ccc(Oc4ccccc4)cc3)c2cc1OC [SrcI1] (first compound 0.004 µM, partner dose 2 µM)",91.1%
3,"Cc1cc(Nc2cc(N3CCN(C)CC3)nc(/C=C/c3ccccc3)n2)n[nH]1 + O=S(=O)(c1ccccc1)N(CC(F)(F)F)c1ccc(C(O)(C(F)(F)F)C(F)(F)F)cc1 [T0901317] (first compound 0.04 µM, partner dose 1.4 µM)",112%
4,"CCCS(=O)(=O)Nc1ccc(F)c(C(=O)c2c[nH]c3ncc(Cl)cc23)c1F + O=C1NC(=O)/C(=C/c2ccc(-c3ccc(F)cc3O)o2)S1 [AS252424] (first compound 0.08 µM, partner dose 1 µM)",113%
5,"Cn1c(=O)n(-c2ccc(C(C)(C)C#N)cc2)c2c3cc(-c4cnc5ccccc5c4)ccc3ncc21 + CC(C)CCN1c2nc(Nc3cc(F)c(O)c(F)c3)ncc2N(C)C(=O)C1C [BID1870] (first compound 0.004 µM, partner dose 0.2 µM)",96%
6,"CN1CCN(c2ccc3nc(-c4c(N)c5c(F)cccc5[nH]c4=O)[nH]c3c2)CC1 [Dovitinib] + Oc1cc(-c2nc(-c3ccccc3)[nH]c2-c2ccncc2)ccc1Cl [L779450] (first compound 0.1 µM, partner dose 0.2 µM)",107%
7,"Nc1nc(F)nc2c1ncn2[C@@H]1O[C@H](CO)[C@@H](O)[C@@H]1O [fludarabine] + COc1cc(N2CCC(N3CCN(C)CC3)CC2)ccc1Nc1ncc(Cl)c(Nc2ccccc2S(=O)(=O)C(C)C)n1 [NVP-TAE684] (first compound 0.2 µM, partner dose 0.08 µM)",85.8%
8,"Nc1ncn([C@H]2C[C@H](O)[C@@H](CO)O2)c(=O)n1 [decitabine] + COc1ccc(-c2ccc3c(N4CCOCC4)nc(N4C[C@@H](C)O[C@@H](C)C4)nc3n2)cc1CO [KU0063794] (first compound 0.1 µM, partner dose 0.02 µM)",116%
9,"CCCS(=O)(=O)Nc1ccc(F)c(C(=O)c2c[nH]c3ncc(Cl)cc23)c1F + Oc1cc(-c2nc(-c3ccccc3)[nH]c2-c2ccncc2)ccc1Cl [L779450] (first compound 0.08 µM, partner dose 0.2 µM)",97.6%
10,"C=C(c1ccc(C(=O)O)cc1)c1cc2c(cc1C)C(C)(C)CCC2(C)C [Bexarotene] + CCCCCCCCCCCC1=C(O)C(=O)C=C(O)C1=O [Embelin] (first compound 2 µM, partner dose 1.2 µM)",91.9%
11,"O=C(O)c1ccc2c(c1)nc(Nc1cccc(Cl)c1)c1ccncc12 + Oc1nc(-c2ccc(C(F)(F)F)cc2)nc2c1CSCC2 [XAV939] (first compound 0.4 µM, partner dose 2 µM)",97.9%
12,"C=C(c1ccc(C(=O)O)cc1)c1cc2c(cc1C)C(C)(C)CCC2(C)C [Bexarotene] + COC(=O)c1sccc1S(=O)(=O)Nc1ccc(Nc2ccccc2)cc1OC [GSK0660] (first compound 2 µM, partner dose 1 µM)",152%
13,"Nc1nc(F)nc2c1ncn2[C@@H]1O[C@H](CO)[C@@H](O)[C@@H]1O [fludarabine] + COc1ccc2c(c1)CCC1C2CCC2(C)C(NCCCCCCN3C(=O)C=CC3=O)CCC12 [U73122] (first compound 0.2 µM, partner dose 0.4 µM)",93.1%
14,"O=C(O)[C@@H]1[O][Sb](=[O])([O][Sb]2(=[O])[O][C@H]([C@H](O)CO)[C@H](O)[C@H](C(=O)O)[O]2)[O][C@H]([C@H](O)CO)[C@@H]1O (stereo not given in full) [stibogluconate] + O=C(O)C(=O)Nc1sc2c(c1C(=O)O)CCNC2 [TCS401] (first compound 2 µM, partner dose 1.66667 µM)",68.2%
15,"C=C(c1ccc(C(=O)O)cc1)c1cc2c(cc1C)C(C)(C)CCC2(C)C [Bexarotene] + Cc1cc([N+](=O)[O-])ccc1NS(=O)(=O)c1cc(Cl)ccc1Cl [FH535] (first compound 2 µM, partner dose 1 µM)",173%

# Retrieved one by one from the entries so far, 2 records:
row,SMILES,cleaved PARP positive nuclei fraction
4,"CCCS(=O)(=O)Nc1ccc(F)c(C(=O)c2c[nH]c3ncc(Cl)cc23)c1F + O=C1NC(=O)/C(=C/c2ccc(-c3ccc(F)cc3O)o2)S1 [AS252424] (first compound 0.08 µM, partner dose 1 µM)",113%
7,"Nc1nc(F)nc2c1ncn2[C@@H]1O[C@H](CO)[C@@H](O)[C@@H]1O [fludarabine] + COc1cc(N2CCC(N3CCN(C)CC3)CC2)ccc1Nc1ncc(Cl)c(Nc2ccccc2S(=O)(=O)C(C)C)n1 [NVP-TAE684] (first compound 0.2 µM, partner dose 0.08 µM)",85.8%
